{"source": "patent US20210015793A1", "about": "“COMPOUNDS FOR TREATING CNS- AND NEURODEGENERATIVE DISEASES” (ETH ZURICH, priority 2018, published 2021)", "tested_on": "rats subjected to the CUMS protocol", "assay": "Immunoblot detection of hippocampal PHF-Tau (AT8) in aged rats subjected to CUMS", "format": "in vivo, rat", "settings": "16 months-old rats, CUMS for 4 weeks, oral treatment 8 mg/kg/d", "protocol": "As a model for reproducing major features of sporadic AD and depression, 15 months-old male rats were […] according to the CUMS protocol for 4 weeks. The following stimuli were administered each week in a random order: two periods (7 h and 17 h) of 45° cage tilt; soaked cage for 17 h; food deprivation (24 h) and water deprivation (12 h), twice a week; paired housing (17 h); overnight illumination during the dark phase, twice a week; noise (85 dB) in the room for 5 h, twice a week; flashing light (60 flashes/min) for 6 h, three times a week (AbdAlla et al., Biomed. Res. Int. 2015:917156 (2015); El-faramawy et al., Pharmacol. Biochem. Behav. 91, 339-344 (2009)). The sucrose preference test (2% sucrose in water) was done immediately after a period of food and water deprivation. […]\nFor immunoblot detection of PHF-Tau in the hippocampus of aged 16 month-old rats subjected to the CUMS protocol for 4 weeks, hippocampi were dissected out from isolated brains on ice, pulverized under liquid nitrogen, and proteins were extracted with guanidine-hydrochloride (6.25 M guanidine hydrochloride in 50 mM Tris, pH 8.0 supplemented with 1× protease inhibitors and 1× phosphatase inhibitors) for 30 min at 4° C. […] For quantitative analysis, quantitative immunoblot evaluation was performed. To control for equal protein loading, the total content of hippocampal Gnb was determined. […]", "note": "At least one structure is not confirmed: it was looked up by name or label, or the drawing left a doubt.", "data": [{"smiles": "c1cc(-c2ccc3c(c2)OCO3)ncn1", "note": "[Compound-4, 4-(1,3-benzodioxol-5-yl)pyrimidine]", "values": [{"measurement": "hippocampal PHF Tau hyperphosphorylation (immunoblot AT8)", "value": "retard PHF Tau hyperphosphorylation"}]}]}
